Record: PubChem BioAssay AID1259424 (University of Nebraska Medical Center, 2018)
Test: 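Rank knockdowns across the genome by resemblance to the KSR1 depletion profile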 (primary screen). Cells: human HCT116 colon cancer cells. Reagents: siRNA pool against human genes, 50 nM. Read-out: 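Log2 levels of six mRNAs (branched-DNA multiplex), adjusted by two reference genes and the non-targeting median, then scored against the average KSR1 knockdown pattern as Pearson r and euclidean distance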. Reading the numbers: mean correlation with KSR1 profile and KSR1 correlation: higher = expression change more like KSR1 knockdown; mean distance from KSR1 profile: higher = expression change less like KSR1 knockdown.
The whole screen tested about 14,000 reagents; this is an unselected part. 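Higher correlation or smaller distance means closer resemblance to KSR1 loss; control wells, including KSR1 knockdowns, recur on many plates.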 Some reagents were tested in more than one well and are listed for each. Not stated in the record: the time to read-out.

| gene knocked down | mean correlation with KSR1 profile | mean distance from KSR1 profile | KSR1 correlation, replicate 1 | KSR1 correlation, replicate 2 | KSR1 correlation, replicate 3 |
| --- | --- | --- | --- | --- | --- |
| EIF2AK2 (GeneID 5610) | 0.223 | 2.02 | 0.252 | 0.336 | 0.194 |
| IFNG (GeneID 3458) | 0.708 | 0.759 | 0.506 | 0.782 | 0.747 |
| RHOV (GeneID 171177) | -0.341 | 2.77 | -0.344 | -0.437 | -0.104 |
| PON2 (GeneID 5445) | 0.201 | 1.21 | 0.2 | 0.19 | 0.21 |
| FCHO1 (GeneID 23149) | 0.155 | 1.15 | 0.147 | -0.0361 | 0.0285 |
| FSHR (GeneID 2492) | 0.518 | 2.46 | 0.513 | 0.5 | 0.0585 |
| ZNF224 (GeneID 7767) | 0.644 | 1.2 | 0.521 | 0.571 | 0.281 |
| ZNF224 (GeneID 7767) | 0.491 | 1.03 | 0.481 | 0.263 | 0.583 |
| ZNF24 (GeneID 7572) | -0.569 | 4.08 | -0.454 | -0.51 | -0.595 |
| CCDC28B (GeneID 79140) | -0.252 | 1.27 | -0.345 | -0.589 | -0.526 |
| PROS1 (GeneID 5627) | -0.0148 | 1.75 | 0.128 | -0.192 | -0.00433 |
| PLXDC2 (GeneID 84898) | 0.59 | 2.25 | 0.206 | 0.267 | 0.884 |
| ZDBF2 (GeneID 57683) | 0.674 | 1.2 | 0.58 | 0.696 | 0.394 |
| LSM4 (GeneID 25804) | -0.385 | 1.99 | -0.422 | 0.00718 | -0.561 |
| DFFA (GeneID 1676) | -0.336 | 3 | -0.377 | -0.44 | -0.253 |
| TOX3 (GeneID 27324) | -0.494 | 1.83 | -0.611 | -0.507 | -0.392 |
| UPP1 (GeneID 7378) | -0.108 | 2.17 | 0.138 | -0.463 | -0.0175 |
| IGSF1 (GeneID 3547) | -0.525 | 2.02 | -0.61 | -0.448 | -0.516 |
| PRDM15 (GeneID 63977) | 0.16 | 2.29 | 0.231 | 0.00498 | 0.135 |
| BLOC1S1 (GeneID 2647) | -0.069 | 2.69 | -0.189 | -0.357 | 0.37 |

A run of entries of the results above:
| gene knocked down | mean correlation with KSR1 profile | mean distance from KSR1 profile | KSR1 correlation, replicate 1 | KSR1 correlation, replicate 2 | KSR1 correlation, replicate 3 |
| --- | --- | --- | --- | --- | --- |
| ZNF24 (GeneID 7572) | -0.569 | 4.08 | -0.454 | -0.51 | -0.595 |
| CCDC28B (GeneID 79140) | -0.252 | 1.27 | -0.345 | -0.589 | -0.526 |
